Results from the supplement of paper PMC10849652.
The other results are listed elsewhere or left out.

Sequences of proteins named here, by UniProt entry; tags and fusion partners are left off. A change or cut given only in a name is not applied to a line headed by its entry.
UniProt Q9Y3A6: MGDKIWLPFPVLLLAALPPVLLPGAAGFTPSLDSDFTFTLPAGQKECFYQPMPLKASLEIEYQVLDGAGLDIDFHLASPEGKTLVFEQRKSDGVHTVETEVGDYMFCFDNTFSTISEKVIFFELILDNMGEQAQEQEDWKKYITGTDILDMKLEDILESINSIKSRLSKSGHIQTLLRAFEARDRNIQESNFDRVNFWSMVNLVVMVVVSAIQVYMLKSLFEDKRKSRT
UniProt Q9BUB7: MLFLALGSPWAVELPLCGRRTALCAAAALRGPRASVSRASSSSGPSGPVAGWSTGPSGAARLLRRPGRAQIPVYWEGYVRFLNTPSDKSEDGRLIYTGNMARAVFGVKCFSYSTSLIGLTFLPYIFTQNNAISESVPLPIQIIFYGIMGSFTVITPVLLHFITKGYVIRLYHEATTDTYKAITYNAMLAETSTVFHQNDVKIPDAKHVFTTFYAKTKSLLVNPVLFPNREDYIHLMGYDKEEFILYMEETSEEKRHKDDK
UniProt Q04727: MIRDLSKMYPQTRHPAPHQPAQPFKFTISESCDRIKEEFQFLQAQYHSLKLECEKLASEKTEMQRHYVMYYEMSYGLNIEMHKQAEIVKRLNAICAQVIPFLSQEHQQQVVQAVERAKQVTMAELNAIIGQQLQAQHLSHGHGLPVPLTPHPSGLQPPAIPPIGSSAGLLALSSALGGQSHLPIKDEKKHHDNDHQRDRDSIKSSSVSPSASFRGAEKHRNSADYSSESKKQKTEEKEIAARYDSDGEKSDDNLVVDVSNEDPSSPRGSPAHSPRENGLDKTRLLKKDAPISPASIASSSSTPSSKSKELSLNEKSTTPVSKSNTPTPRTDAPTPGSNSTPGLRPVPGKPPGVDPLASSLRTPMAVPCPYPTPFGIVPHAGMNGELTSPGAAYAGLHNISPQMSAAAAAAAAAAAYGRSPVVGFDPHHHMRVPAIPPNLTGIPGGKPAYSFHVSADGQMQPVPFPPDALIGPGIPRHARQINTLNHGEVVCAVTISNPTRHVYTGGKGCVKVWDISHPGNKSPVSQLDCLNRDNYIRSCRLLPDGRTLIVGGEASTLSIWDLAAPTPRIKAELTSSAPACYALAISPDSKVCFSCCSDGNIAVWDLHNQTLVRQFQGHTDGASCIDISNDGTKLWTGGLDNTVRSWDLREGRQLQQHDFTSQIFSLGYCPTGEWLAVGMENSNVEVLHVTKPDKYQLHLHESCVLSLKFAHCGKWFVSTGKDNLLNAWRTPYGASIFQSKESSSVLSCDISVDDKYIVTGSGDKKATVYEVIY
UniProt Q86UE8, whole entry, looked up: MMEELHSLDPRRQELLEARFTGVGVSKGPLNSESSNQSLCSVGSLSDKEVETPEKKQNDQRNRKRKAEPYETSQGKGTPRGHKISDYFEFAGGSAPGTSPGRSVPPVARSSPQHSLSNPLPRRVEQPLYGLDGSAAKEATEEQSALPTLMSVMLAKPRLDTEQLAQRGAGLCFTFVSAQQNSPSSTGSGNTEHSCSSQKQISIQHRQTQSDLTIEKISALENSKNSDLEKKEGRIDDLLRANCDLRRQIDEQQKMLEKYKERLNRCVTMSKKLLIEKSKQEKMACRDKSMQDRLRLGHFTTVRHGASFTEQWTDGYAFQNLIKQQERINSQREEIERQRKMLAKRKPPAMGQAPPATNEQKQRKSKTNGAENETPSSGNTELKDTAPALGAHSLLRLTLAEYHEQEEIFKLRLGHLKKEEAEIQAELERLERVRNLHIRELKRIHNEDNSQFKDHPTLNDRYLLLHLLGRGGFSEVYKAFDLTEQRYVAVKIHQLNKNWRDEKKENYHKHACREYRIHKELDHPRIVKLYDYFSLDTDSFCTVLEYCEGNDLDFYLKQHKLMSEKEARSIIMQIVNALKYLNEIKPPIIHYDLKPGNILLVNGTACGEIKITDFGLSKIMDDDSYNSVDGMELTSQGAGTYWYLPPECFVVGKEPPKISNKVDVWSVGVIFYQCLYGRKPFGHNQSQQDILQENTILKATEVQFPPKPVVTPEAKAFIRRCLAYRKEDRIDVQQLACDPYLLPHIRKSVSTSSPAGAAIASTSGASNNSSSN
UniProt Q5T3F8: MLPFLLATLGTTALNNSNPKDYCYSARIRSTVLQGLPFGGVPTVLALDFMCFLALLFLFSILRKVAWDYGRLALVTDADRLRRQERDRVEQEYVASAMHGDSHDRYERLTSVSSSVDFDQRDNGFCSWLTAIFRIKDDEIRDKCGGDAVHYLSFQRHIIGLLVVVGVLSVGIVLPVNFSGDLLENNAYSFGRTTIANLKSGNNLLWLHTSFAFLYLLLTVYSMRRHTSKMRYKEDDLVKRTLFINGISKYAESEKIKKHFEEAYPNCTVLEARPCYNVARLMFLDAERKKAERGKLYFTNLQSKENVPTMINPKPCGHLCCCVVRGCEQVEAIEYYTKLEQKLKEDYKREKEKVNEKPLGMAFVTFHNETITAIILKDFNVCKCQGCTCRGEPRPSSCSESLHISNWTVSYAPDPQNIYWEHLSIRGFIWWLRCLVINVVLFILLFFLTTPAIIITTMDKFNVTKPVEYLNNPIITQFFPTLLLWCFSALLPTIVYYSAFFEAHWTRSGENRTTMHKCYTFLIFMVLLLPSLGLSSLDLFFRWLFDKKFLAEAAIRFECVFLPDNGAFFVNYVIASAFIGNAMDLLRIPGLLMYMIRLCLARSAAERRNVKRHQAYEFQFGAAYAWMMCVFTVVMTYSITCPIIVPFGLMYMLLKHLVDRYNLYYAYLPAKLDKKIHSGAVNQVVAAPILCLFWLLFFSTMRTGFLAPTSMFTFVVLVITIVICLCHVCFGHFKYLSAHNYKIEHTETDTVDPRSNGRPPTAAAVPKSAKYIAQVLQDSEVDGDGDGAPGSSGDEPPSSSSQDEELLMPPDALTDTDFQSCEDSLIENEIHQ
UniProt A0PJW6: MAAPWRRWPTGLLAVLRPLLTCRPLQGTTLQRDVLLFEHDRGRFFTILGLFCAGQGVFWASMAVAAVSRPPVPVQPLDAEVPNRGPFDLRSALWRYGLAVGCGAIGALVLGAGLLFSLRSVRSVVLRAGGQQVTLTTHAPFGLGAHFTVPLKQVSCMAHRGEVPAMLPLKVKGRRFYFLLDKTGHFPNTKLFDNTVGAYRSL
UniProt Q96SK2: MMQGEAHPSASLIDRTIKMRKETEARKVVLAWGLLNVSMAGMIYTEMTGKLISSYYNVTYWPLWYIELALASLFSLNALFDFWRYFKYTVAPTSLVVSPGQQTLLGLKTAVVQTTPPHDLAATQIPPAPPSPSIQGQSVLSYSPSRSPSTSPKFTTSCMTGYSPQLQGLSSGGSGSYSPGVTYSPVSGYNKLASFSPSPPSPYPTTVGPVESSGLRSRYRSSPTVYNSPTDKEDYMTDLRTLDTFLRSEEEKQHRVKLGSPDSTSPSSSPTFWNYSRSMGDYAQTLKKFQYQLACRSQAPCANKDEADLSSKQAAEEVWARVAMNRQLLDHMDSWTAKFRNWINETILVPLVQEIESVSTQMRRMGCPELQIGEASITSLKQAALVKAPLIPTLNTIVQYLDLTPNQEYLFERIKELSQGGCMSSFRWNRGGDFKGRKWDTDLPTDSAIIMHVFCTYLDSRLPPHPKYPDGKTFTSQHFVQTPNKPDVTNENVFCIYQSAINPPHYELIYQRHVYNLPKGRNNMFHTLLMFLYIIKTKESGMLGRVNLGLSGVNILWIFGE
UniProt Q9BVC6: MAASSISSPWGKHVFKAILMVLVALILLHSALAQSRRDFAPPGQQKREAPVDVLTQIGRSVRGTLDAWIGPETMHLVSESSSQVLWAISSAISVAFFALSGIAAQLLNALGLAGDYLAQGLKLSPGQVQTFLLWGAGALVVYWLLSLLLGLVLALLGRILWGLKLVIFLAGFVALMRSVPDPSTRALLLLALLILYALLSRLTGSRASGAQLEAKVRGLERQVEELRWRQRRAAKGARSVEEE
UniProt Q9BTV4: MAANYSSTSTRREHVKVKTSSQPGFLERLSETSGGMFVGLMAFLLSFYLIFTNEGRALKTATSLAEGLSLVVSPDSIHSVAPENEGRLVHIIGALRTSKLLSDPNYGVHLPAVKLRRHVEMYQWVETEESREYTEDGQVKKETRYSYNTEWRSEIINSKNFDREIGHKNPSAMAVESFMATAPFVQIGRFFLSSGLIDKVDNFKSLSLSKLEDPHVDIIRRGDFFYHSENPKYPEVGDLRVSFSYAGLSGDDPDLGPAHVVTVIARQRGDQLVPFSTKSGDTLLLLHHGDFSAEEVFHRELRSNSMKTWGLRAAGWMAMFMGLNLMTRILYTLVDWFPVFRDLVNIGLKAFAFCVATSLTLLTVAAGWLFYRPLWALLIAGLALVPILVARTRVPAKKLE
UniProt Q8NBN3: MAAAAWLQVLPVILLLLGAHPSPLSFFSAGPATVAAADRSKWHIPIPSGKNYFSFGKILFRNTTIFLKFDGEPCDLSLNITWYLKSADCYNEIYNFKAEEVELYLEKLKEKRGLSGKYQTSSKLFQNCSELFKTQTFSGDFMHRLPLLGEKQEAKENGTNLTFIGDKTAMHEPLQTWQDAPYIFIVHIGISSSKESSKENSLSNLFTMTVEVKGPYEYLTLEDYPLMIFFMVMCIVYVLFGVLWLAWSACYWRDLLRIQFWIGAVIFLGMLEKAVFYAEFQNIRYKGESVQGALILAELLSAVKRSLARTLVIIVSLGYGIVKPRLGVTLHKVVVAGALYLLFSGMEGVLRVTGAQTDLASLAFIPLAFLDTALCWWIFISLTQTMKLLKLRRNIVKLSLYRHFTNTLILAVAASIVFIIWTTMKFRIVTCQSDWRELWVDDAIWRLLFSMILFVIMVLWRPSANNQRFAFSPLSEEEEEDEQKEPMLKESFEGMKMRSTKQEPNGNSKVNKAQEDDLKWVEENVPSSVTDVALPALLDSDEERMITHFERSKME
UniProt Q6ZXV5: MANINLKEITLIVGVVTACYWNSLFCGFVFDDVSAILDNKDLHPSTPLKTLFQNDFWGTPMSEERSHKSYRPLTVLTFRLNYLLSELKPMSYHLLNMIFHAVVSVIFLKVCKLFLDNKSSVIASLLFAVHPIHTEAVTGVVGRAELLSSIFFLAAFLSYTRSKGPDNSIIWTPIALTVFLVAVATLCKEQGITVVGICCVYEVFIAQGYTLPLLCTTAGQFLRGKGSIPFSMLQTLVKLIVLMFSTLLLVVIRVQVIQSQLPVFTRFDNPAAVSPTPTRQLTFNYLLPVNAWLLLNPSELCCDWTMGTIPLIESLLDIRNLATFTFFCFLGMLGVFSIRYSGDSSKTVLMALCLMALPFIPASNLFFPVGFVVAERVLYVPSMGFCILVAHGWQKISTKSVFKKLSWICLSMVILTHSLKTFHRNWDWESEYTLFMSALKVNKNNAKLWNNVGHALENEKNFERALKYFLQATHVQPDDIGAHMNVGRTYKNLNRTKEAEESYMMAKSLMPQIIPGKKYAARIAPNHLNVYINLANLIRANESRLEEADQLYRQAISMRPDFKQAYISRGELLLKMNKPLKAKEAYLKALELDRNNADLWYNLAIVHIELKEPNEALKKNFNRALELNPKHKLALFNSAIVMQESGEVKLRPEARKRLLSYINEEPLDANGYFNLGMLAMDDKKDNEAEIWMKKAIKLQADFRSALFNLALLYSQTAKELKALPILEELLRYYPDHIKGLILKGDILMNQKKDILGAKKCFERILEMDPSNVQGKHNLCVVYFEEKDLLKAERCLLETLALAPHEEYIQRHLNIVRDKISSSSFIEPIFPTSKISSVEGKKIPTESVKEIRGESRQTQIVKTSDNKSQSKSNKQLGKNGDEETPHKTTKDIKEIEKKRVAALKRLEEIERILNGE
UniProt Q9NZR1: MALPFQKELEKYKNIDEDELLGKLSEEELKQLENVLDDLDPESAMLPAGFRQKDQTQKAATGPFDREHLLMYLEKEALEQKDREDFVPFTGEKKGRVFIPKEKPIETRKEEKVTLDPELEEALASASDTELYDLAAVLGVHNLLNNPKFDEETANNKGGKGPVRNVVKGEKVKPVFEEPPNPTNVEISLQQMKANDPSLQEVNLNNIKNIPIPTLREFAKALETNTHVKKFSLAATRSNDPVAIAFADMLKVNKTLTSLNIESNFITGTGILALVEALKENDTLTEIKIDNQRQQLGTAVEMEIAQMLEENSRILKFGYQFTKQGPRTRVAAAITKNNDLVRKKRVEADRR
UniProt O00220, whole entry, looked up: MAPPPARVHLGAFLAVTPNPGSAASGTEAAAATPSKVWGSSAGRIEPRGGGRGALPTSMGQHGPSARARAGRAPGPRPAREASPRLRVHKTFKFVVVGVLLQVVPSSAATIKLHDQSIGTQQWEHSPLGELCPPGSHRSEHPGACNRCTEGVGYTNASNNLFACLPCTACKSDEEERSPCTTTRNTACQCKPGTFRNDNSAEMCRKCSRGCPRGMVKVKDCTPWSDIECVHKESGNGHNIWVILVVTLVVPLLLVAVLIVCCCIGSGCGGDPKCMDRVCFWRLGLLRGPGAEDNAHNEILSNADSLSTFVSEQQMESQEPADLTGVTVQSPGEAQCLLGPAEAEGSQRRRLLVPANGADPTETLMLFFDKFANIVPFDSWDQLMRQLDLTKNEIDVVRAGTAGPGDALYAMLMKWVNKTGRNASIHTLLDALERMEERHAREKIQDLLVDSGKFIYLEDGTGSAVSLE

What was measured:
Assay in all cases: log2 fold change, soluble protein after heating vs DMSO (PISA); higher = thermal stabilisation; K562 cells, 10 uM, 30 min; active = over 0.2 and 3.5 SD of the protein, either way, in both replicates (recomputed)
[1] = compound: CC1=C(C=C(C=C1)NC(=O)C2=CC(=CC=C2)C(C)(C)C#N)NC3=CC4=C(C=C3)N=CN(C4=O)C
Method in brief: (§1)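 Soluble protein was quantified by TMTpro 16plex LC-MS/MS after channel sums were equalised. It was obtained as the supernatant after 21,000xg for 90 min from pooled aliquots of K562 cells (2×10^6 cells/mL, 10 μM compound, 30 min) heated for 3 min across 48°C-58°C and extracted in PBS with 0.5% NP-40 at 4°C. Thermal stability values are relative to control samples and come from duplicates. They are given as log2 fold changes.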

[2] = compound: CC1=C(C=C(C=C1)NC(=O)C2=CC(=CC=C2)N(C)C)NC(=O)C3=CC=C(C=C3)O
Method in brief: as §1

[3] = compound: CC1=CC=C(C=C1)SC2=C3C=C(SC3=CN=C2)C(=O)N
Method in brief: as §1

[4] = compound: CC1=NC(=CC=C1)C2=C(N=C(N2)C(C)(C)C)C3=CC4=NC=CN=C4C=C3
Method in brief: as §1

Nexturastat A = compound: CCCCN(Cc1ccc(C(=O)NO)cc1)C(=O)Nc1ccccc1 [Nexturastat A]
Method in brief: as §1

vemurafenib = compound: CCCS(=O)(=O)Nc1ccc(F)c(C(=O)c2c[nH]c3ncc(-c4ccc(Cl)cc4)cc23)c1F [vemurafenib]
Method in brief: as §1

[5] = compound: CCCS(=O)(=O)Nc1ccc(F)c(C(=O)c2c[nH]c3ncc(Cl)cc23)c1F
Method in brief: as §1

[6] = compound: CCCc1cc(C)[nH]c(=O)c1CNC(=O)c1cc(-c2ccnc(N3CCN(C)CC3)c2)cc2c1cnn2C(C)C
Method in brief: as §1

givinostat = compound: CCN(CC)Cc1ccc2cc(COC(=O)Nc3ccc(C(=O)NO)cc3)ccc2c1 [givinostat]
Method in brief: as §1

barasertib = compound: CCN(CCCOc1ccc2c(Nc3cc(CC(=O)Nc4cccc(F)c4)[nH]n3)ncnc2c1)CCOP(=O)(O)O [barasertib]
Method in brief: as §1

[7] = compound: CC[C@@H]1C(=O)N(C)c2cnc(Nc3ccc(C(=O)NC4CCN(C)CC4)cc3OC)nc2N1C1CCCC1
Method in brief: as §1

volasertib = compound: CC[C@@H]1C(=O)N(C)c2cnc(Nc3ccc(C(=O)N[C@H]4CC[C@H](N5CCN(CC6CC6)CC5)CC4)cc3OC)nc2N1C(C)C [volasertib]
Method in brief: as §1

[8] = compound: CC[C@H](C)N1C=C(C2=C(C=C(C=C21)C3=CN=C(C=C3)N4CCNCC4)C(=O)NCC5=C(C=C(NC5=O)C)C)C
Method in brief: as §1

epoxomicin = compound: CC[C@H](C)[C@@H](C(=O)N[C@@H]([C@@H](C)O)C(=O)N[C@@H](CC(C)C)C(=O)[C@]1(CO1)C)NC(=O)[C@H]([C@@H](C)CC)N(C)C(=O)C [epoxomicin]
Method in brief: as §1

[9] = compound: CCn1c(C(=O)N(C2CC2)C2CC2)cc2c3c(ncn3C)c(Nc3cc(C)n(C)n3)nc21
Method in brief: as §1

[10] = compound: CCn1cc(-c2ccnc3[nH]c(-c4cccc(CN(C)C)c4)cc23)c(-c2ccc(NC(=O)N(C)C)cc2)n1
Method in brief: as §1

[11] = compound: CN(C)CC(=O)Nc1ccc2[nH]c(=O)c3ccccc3c2c1
Method in brief: as §1

rosiglitazone = compound: CN(CCOC1=CC=C(C=C1)C[C@H]2C(=O)NC(=O)S2)C3=CC=CC=N3 (racemic) [rosiglitazone]
Method in brief: as §1

[12] = compound: CN1C2=C(C3=C1C(=O)N(N=C3)CC4=CC(=CC=C4)N)SC(=C2)S(=O)C
Method in brief: as §1

[13] = compound: CN1CCC(CNc2ccc3ncc(-c4cccc(OC(F)(F)F)c4)n3n2)CC1
Method in brief: as §1

Target | log2 fold change [1] | log2 fold change [2] | log2 fold change [3] | log2 fold change [4] | log2 fold change (Nexturastat A) | log2 fold change (vemurafenib) | log2 fold change [5] | log2 fold change [6] | log2 fold change (givinostat) | log2 fold change (barasertib) | log2 fold change [7] | log2 fold change (volasertib) | log2 fold change [8] | log2 fold change (epoxomicin) | log2 fold change [9] | log2 fold change [10] | log2 fold change [11] | log2 fold change (rosiglitazone) | log2 fold change [12] | log2 fold change [13]
TMED5 (UniProt Q9Y3A6) | inactive: 0.013 | inactive: -0.005 | inactive: -0.021 | inactive: -0.017 | inactive: -0.011 | inactive: -0.021 | inactive: -0.03 | inactive: 0.016 | inactive: 0.022 | inactive: 0.004 | inactive: 0.025 | inactive: 0.133 | inactive: -0.004 | inactive: -0.029 | inactive: 0 | inactive: -0.055 | inactive: -0.081 | inactive: 0.038 | inactive: -0.089 | inactive: -0.058
TMEM70 (UniProt Q9BUB7) | inactive: 0.006 | inactive: 0.051 | inactive: 0.051 | inactive: 0.005 | inactive: -0.012 | inactive: -0.011 | inactive: 0.029 | inactive: -0.053 | inactive: -0.164 | inactive: 0.047 | inactive: 0.005 | inactive: 0.064 | inactive: -0.017 | inactive: 0.001 | active: 0.257 | inactive: -0.055 | inactive: 0.001 |  | inactive: -0.048 | active: -0.288
TLE4 isoform 3 (UniProt Q04727) | inactive: -0.037 | inactive: -0.03 | inactive: -0.032 | inactive: 0.001 | inactive: -0.016 | inactive: -0.019 | inactive: 0.006 | inactive: -0.027 | inactive: -0.024 | inactive: -0.016 | inactive: 0.063 | inactive: -0.001 | inactive: -0.027 | inactive: 0.037 | inactive: 0 | inactive: -0.031 | inactive: -0.028 | inactive: 0.01 | inactive: -0.026 | inactive: -0.005
TLK2 isoform 2 (UniProt Q86UE8) | inactive: -0.003 | inactive: -0.015 | inactive: -0.013 | inactive: 0.02 | inactive: -0.072 | inactive: -0.029 | inactive: 0.03 | inactive: -0.036 | inactive: 0.099 | inactive: -0.006 | inactive: -0.015 | inactive: -0.112 | inactive: 0.029 | inactive: -0.01 |  | inactive: -0.024 | inactive: -0.012 |  | inactive: -0.039 | inactive: -0.054
TMEM63B (UniProt Q5T3F8) | inactive: 0.095 | inactive: 0.014 | inactive: 0.006 | inactive: 0.004 | inactive: 0.051 | inactive: 0.009 | inactive: -0.011 | inactive: -0.044 | inactive: 0.014 | inactive: -0.038 | inactive: -0.001 | inactive: 0.071 | inactive: -0.019 | inactive: 0.039 |  | inactive: 0.011 | inactive: -0.052 |  | inactive: 0.042 | inactive: -0.073
TMEM223 (UniProt A0PJW6) | inactive: 0.034 | inactive: -0.001 | inactive: -0.026 | inactive: 0.058 | inactive: -0.13 | inactive: 0.084 | inactive: 0.055 | inactive: -0.128 | inactive: 0.002 | inactive: 0.041 | inactive: -0.004 | inactive: 0.043 | inactive: 0.035 | inactive: -0.01 |  | inactive: 0.022 | inactive: -0.015 |  | inactive: -0.022 | active: -0.271
TMEM189-UBE2V1 (UniProt I3L0A0) | inactive: -0.067 | inactive: 0.017 | inactive: 0.006 | inactive: -0.003 | inactive: -0.042 | inactive: -0.005 | inactive: -0.056 | inactive: -0.182 | inactive: 0.024 | inactive: -0.054 | inactive: 0.054 | inactive: 0.056 | inactive: -0.137 | inactive: -0.023 |  | inactive: 0.048 | inactive: 0 |  | inactive: -0.035 | inactive: -0.009
TMEM209 (UniProt Q96SK2) | inactive: -0.016 | inactive: 0.063 | inactive: 0.002 | inactive: 0.013 | inactive: -0.026 | inactive: 0.034 | inactive: 0.011 | inactive: -0.069 | inactive: -0.019 | inactive: 0.034 | inactive: -0.114 | inactive: -0.138 | inactive: 0.094 | inactive: 0.07 | inactive: -0.011 | inactive: 0.004 | inactive: 0.008 | inactive: 0.05 | inactive: -0.033 | inactive: -0.106
TMEM263 (UniProt Q8WUH6) | inactive: -0.009 | inactive: -0.015 | inactive: 0.117 | inactive: 0.059 | inactive: -0.02 | inactive: -0.051 | inactive: 0.128 | inactive: -0.138 | inactive: -0.015 | inactive: 0.054 | active: -0.462 | inactive: -0.5 | inactive: -0.03 | inactive: 0.005 |  | inactive: -0.105 | inactive: 0.024 |  | inactive: -0.057 | active: -1.32
TMEM109 (UniProt Q9BVC6) | inactive: 0.033 | inactive: 0.017 | inactive: -0.016 | inactive: 0.022 | inactive: -0.02 | inactive: -0.055 | inactive: -0.037 | inactive: -0.066 | inactive: -0.015 | inactive: -0.004 | inactive: -0.03 | inactive: 0.064 | inactive: -0.051 | inactive: -0.001 | inactive: -0.001 | inactive: 0.02 | inactive: -0.042 | inactive: 0.009 | inactive: -0.036 | inactive: 0.039
TMEM43 (UniProt Q9BTV4) | inactive: 0.01 | inactive: -0.011 | inactive: -0.023 | inactive: -0.049 | inactive: 0.04 | inactive: -0.016 | inactive: -0.031 | inactive: 0.035 | inactive: -0.002 | inactive: 0.013 | inactive: 0 | inactive: -0.018 | inactive: 0.013 | inactive: -0.007 | inactive: 0.016 | inactive: -0.019 | inactive: -0.012 | inactive: -0.008 | inactive: 0.001 | inactive: 0.005
TMEM87A (UniProt Q8NBN3) | inactive: -0.023 | inactive: 0.003 | inactive: -0.019 | inactive: 0.02 | inactive: 0.013 | inactive: -0.023 | inactive: -0.005 | inactive: -0.053 | inactive: -0.004 | inactive: 0.012 | inactive: -0.093 | inactive: -0.161 | inactive: -0.027 | inactive: 0.041 | inactive: 0.045 | inactive: -0.015 | inactive: -0.006 | inactive: -0.016 | inactive: -0.047 | inactive: -0.048
TMTC3 (UniProt Q6ZXV5) | inactive: -0.05 | inactive: -0.009 | inactive: 0.019 | inactive: 0.007 | inactive: 0.067 | inactive: -0.052 | inactive: 0.013 | inactive: -0.013 | inactive: -0.032 | inactive: 0.032 | inactive: -0.074 | inactive: -0.118 | inactive: 0.023 | inactive: 0.001 |  | inactive: 0.038 | inactive: -0.045 |  | inactive: -0.014 | inactive: -0.034
TMOD2 (UniProt Q9NZR1) | inactive: -0.067 | inactive: -0.344 | inactive: 0.092 | inactive: 0.074 | inactive: -0.097 | inactive: 0.258 | inactive: -0.006 | inactive: 0.031 | inactive: -0.198 | inactive: 0.037 | inactive: 0.007 | inactive: 0.06 | inactive: -0.055 | inactive: 0.016 | inactive: 0.133 | inactive: -0.051 | inactive: -0.075 | inactive: 0.016 | inactive: 0.042 | inactive: 0.045
TNFRSF10A (UniProt O00220) | inactive: 0.006 | inactive: 0.035 | inactive: 0.016 | inactive: -0.015 | inactive: 0.089 | inactive: -0.073 | inactive: -0.044 | inactive: 0.004 | inactive: -0.042 | inactive: 0.016 | inactive: 0.046 | inactive: 0.001 | inactive: -0.02 | inactive: -0.047 |  | inactive: -0.104 | inactive: -0.123 |  | inactive: -0.02 | inactive: -0.007

Given as tab-separated lines: part of the list above.
Target	log2 fold change [1]	log2 fold change [2]	log2 fold change [3]	log2 fold change [4]	log2 fold change (Nexturastat A)	log2 fold change (vemurafenib)	log2 fold change [5]	log2 fold change [6]	log2 fold change (givinostat)	log2 fold change (barasertib)	log2 fold change [7]	log2 fold change (volasertib)	log2 fold change [8]	log2 fold change (epoxomicin)	log2 fold change [9]	log2 fold change [10]	log2 fold change [11]	log2 fold change (rosiglitazone)	log2 fold change [12]	log2 fold change [13]
TMEM263 (UniProt Q8WUH6)	inactive: -0.009	inactive: -0.015	inactive: 0.117	inactive: 0.059	inactive: -0.02	inactive: -0.051	inactive: 0.128	inactive: -0.138	inactive: -0.015	inactive: 0.054	active: -0.462	inactive: -0.5	inactive: -0.03	inactive: 0.005		inactive: -0.105	inactive: 0.024		inactive: -0.057	active: -1.32
TMEM109 (UniProt Q9BVC6)	inactive: 0.033	inactive: 0.017	inactive: -0.016	inactive: 0.022	inactive: -0.02	inactive: -0.055	inactive: -0.037	inactive: -0.066	inactive: -0.015	inactive: -0.004	inactive: -0.03	inactive: 0.064	inactive: -0.051	inactive: -0.001	inactive: -0.001	inactive: 0.02	inactive: -0.042	inactive: 0.009	inactive: -0.036	inactive: 0.039
